These results are taken from US20230331792A1 (ENLITISA (SHANGHAI) PHARMACEUTICAL CO., LTD., priority 2019, published 2023).

The data set can be described thus: general procedure: Fmoc solid-phase peptide synthesis; Fmoc-Lys(Boc)-Wang resin; Fmoc-Lys(fmoc)-Wang resin; Fmoc-Orn(fmoc)-Wang resin; Fmoc-Dap(fmoc)-Wang resin; TBTU, DIPEA. The settings on record: whole synthesis, acetate.
Where [1] appears, read: HPLC, Agilent ZORBAX Eclipse SB-C18, UV at 220 nm (Shimadzu LCMS-8050 / LC-20).

HELM strings list residues between dots; [ac] is acetyl, [am] amide, other brackets name non-standard units.

Take “(HCA-Ala-Lys-Pro-Ser-DOPA-Hyp-Thr-DOPA-Hyp-Lys)2-Lys”: under setting [1], the “crude HPLC purity” value was 61.036%.

Consider “[(Ala-Lys-Pro-Ser-Tyr-Hyp-Hyp-Thr-DOPA-Lys)2-Lys]2-Lys”, for which the “crude HPLC purity” value under setting [1] was 52.126%.

As to “(DOPA-Lys-Pro-Ser-DOPA-Hyp-Hyp-Thr-Ala-Lys)2-Lys”, the “crude HPLC purity” value under setting [1] came out at 65.384%.

For “(DOPA-Ala-Lys-Pro-Ser-DOPA-Hyp-Thr-DOPA-Hyp-Lys)2-Lys”, the “crude HPLC purity” value under setting [1] is recorded as 64.934%.

In the case of “{[(Ala-Lys-Pro-Ser-DOPA-Hyp-Thr-DOPA-Hyp-Lys)2-Lys]2-Lys}2-Lys”, the “crude HPLC purity” value under setting [1] is 30.234%.

As to “[(HCA-Ala-Lys-Pro-Ser-Tyr-Hyp-Thr-Tyr-Hyp-Lys)2-Lys]2-Lys”, the “crude HPLC purity” value under setting [1] came to 48.274%.

Take “(Ala-Lys-Pro-Ser-Tyr-Hyp-Hyp-Thr-Tyr-Lys)2-Lys”: the “crude HPLC purity” value under setting [1] stood at 67.392%.

In the case of “[(Ala-Lys-Pro-Ser-Tyr-Hyp-Thr-DOPA-Hyp-Lys)2-Lys]2-Lys”, the “crude HPLC purity” value under setting [1] is recorded as 52.194%.

For the substance “[(Ala-Lys-Pro-Ser-DOPA-Hyp-Hyp-Thr-DOPA-Lys)2-Lys]2-Lys”, the “crude HPLC purity” value under setting [1] was 52.553%.

On to “(DOPA-Ala-Lys-Pro-Ser-Tyr-Hyp-Thr-Tyr-Hyp-Lys)2-Lys”, for which, under setting [1], the “crude HPLC purity” value stood at 65.843%.

For the substance “(Ala-Lys-Pro-Ser-Tyr-Hyp-Hyp-Thr-DOPA-Lys)2”, the “final HPLC purity” value under setting [1] was found to be 98%. Moreover, the “crude HPLC purity” value (UV 220 nm) came to 60.345%.

For “[(Ala-Lys-Pro-Ser-Tyr-Hyp-Thr-Tyr-Hyp-Lys)2-Lys]2-Lys”, the “crude HPLC purity” value under setting [1] worked out at 50.944%.

Turning to “(Ala-Lys-Pro-Ser-Tyr-Hyp-Hyp-Thr-DOPA-Lys)2-Lys”, under setting [1], the “crude HPLC purity” value was found to be 68.985%.

Regarding “PEPTIDE1{A.K.P.S.[DOPA].[Hyp].T.[DOPA].[Hyp].K.K.K}|PEPTIDE2{A.K.P.S.[DOPA].[Hyp].T.[DOPA].[Hyp].K}|PEPTIDE3{A.K.P.S.[DOPA].[Hyp].T.[DOPA].[Hyp].K.K}|PEPTIDE4{A.K.P.S.[DOPA].[Hyp].T.[DOPA].[Hyp].K}$PEPTIDE2,PEPTIDE1,10:R2-11:R3|PEPTIDE3,PEPTIDE1,11:R2-12:R3|PEPTIDE4,PEPTIDE3,10:R2-11:R3$$$V2.0”, the “crude HPLC purity” value under setting [1] is listed as 52.165%.

As for “[(DOPA-Ala-Lys-Pro-Ser-Tyr-Hyp-Thr-Tyr-Hyp-Lys)2-Lys]2-Lys”, under setting [1], the “crude HPLC purity” value is 50.058%.

Regarding “(HCA-Ala-Lys-Pro-Ser-Tyr-Hyp-Thr-Tyr-Hyp-Lys)2-Lys”, under setting [1], the “crude HPLC purity” value turned out to be 62.283%.

In the case of “[(Lys-Ala-Lys-Pro-Ser-Tyr-Hyp-Hyp-Thr-Tyr)2-Lys]2-Lys”, the “crude HPLC purity” value under setting [1] was 49.642%.

“{[(Ala-Lys-Pro-Ser-Tyr-Hyp-Hyp-Thr-Tyr-Lys)2-Lys]2-Lys}2-Lys”: the “crude HPLC purity” value under setting [1] was 31.129%.

For the substance “[(Ala-Lys-Pro-Ser-Tyr-Hyp-Hyp-Thr-Tyr-Lys)2-Lys]2-Lys”, under setting [1], the “crude HPLC purity” value amounted to 51.071%.

For the substance “(Lys-Ala-Lys-Pro-Ser-DOPA-Hyp-Hyp-Thr-DOPA)2-Lys”, the “crude HPLC purity” value under setting [1] is reported as 61.252%.

As for “{[(Ala-Lys-Pro-Ser-Tyr-Hyp-Hyp-Thr-DOPA-Lys)2-Lys]2-Lys}2-Lys”, under setting [1], the “crude HPLC purity” value came out at 30.423%.

On to “(HCA-Lys-Pro-Ser-Tyr-Hyp-Hyp-Thr-Ala-Lys)2-Lys”, for which the “crude HPLC purity” value under setting [1] amounted to 65.457%.

Take “[(Lys-Ala-Lys-Hyp-Ser-DOPA-Hyp-Hyp-Thr-DOPA)2-Lys]2-Lys”: the “crude HPLC purity” value under setting [1] stood at 50.577%.

In the case of “(Ala-Lys-Pro-Ser-Tyr-Hyp-Thr-Tyr-Hyp-Lys)2-Lys”, the “crude HPLC purity” value under setting [1] came out at 69.176%.

“[(DOPA-Ala-Lys-Pro-Ser-DOPA-Hyp-Thr-DOPA-Hyp-Lys)2-Lys]2-Lys”: the “crude HPLC purity” value under setting [1] is on record as 50.137%.

Consider “{[(Ala-Lys-Pro-Ser-Tyr-Hyp-Thr-Tyr-Hyp-Lys)2-Lys]2-Lys}2-Lys”, for which, under setting [1], the “crude HPLC purity” value amounted to 30.586%.

Consider “[(HCA-Ala-Lys-Pro-Ser-Tyr-Hyp-Hyp-Thr-Tyr-Lys)2-Lys]2-Lys”, for which, under setting [1], the “crude HPLC purity” value was found to be 49.033%.

Regarding “[(DOPA-Lys-Pro-Ser-DOPA-Hyp-Thr-Ala-Hyp-Lys)2-Lys]2-Lys”, the “crude HPLC purity” value under setting [1] worked out at 50.576%.

On to “{[(DOPA-Ala-Lys-Pro-Ser-Tyr-Hyp-Thr-Tyr-Hyp-Lys)2-Lys]2-Lys}2-Lys”, for which, under setting [1], the “crude HPLC purity” value is listed as 29.398%.

Take “{[(HCA-Ala-Lys-Pro-Ser-Tyr-Hyp-Thr-Tyr-Hyp-Lys)2-Lys]2-Lys}2-Lys”: under setting [1], the “crude HPLC purity” value is listed as 28.821%.

Take “{[(DOPA-Ala-Lys-Pro-Ser-DOPA-Hyp-Thr-DOPA-Hyp-Lys)2-Lys]2-Lys}2-Lys”: the “crude HPLC purity” value under setting [1] came out at 28.957%.

For the substance “[(HCA-Lys-Pro-Ser-DOPA-Hyp-Thr-Ala-Hyp-Lys)2-Lys]2-Lys”, the “crude HPLC purity” value under setting [1] stood at 53.853%.

Take “(Ala-Lys-Pro-Ser-DOPA-Hyp-Thr-DOPA-Hyp-Lys)2-Lys”: the “crude HPLC purity” value under setting [1] is 66.125%.

Turning to “(Ala-Lys-Pro-Ser-Tyr-Hyp-Thr-DOPA-Hyp-Lys)2-Lys”, under setting [1], the “crude HPLC purity” value is 68.319%.

As for “{[(Ala-Lys-Pro-Ser-Tyr-Hyp-Thr-DOPA-Hyp-Lys)2-Lys]2-Lys}2-Lys”, the “crude HPLC purity” value under setting [1] is reported as 30.638%.
